Experimental data reported in the supplement of paper PMC8728848.
The other results are listed elsewhere or left out.

What was measured:
Assay in all cases: glycan array binding signal (z-score within array); higher = stronger binding
Conditions in all cases: glycan notation: IUPAC condensed, linker removed
[1] = target: Neu5Ac(a2-3)Gal(b1-4)GlcNAc(b1-3)Gal
Summary of the method: (§1)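 Glycan array binding is given as a within-array Z-score, which can be read as non-binding when negative. The arrays, 3228 of them, came from the Consortium for Functional Glycomics database and were retained only where the protein sequence was available. Z-scores were averaged across arrays of the same protein sequence at different concentrations or buffers and across linkers.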

[2] = target: Neu5Ac(a2-3)Gal(b1-4)GlcNAc(b1-3)Gal(b1-3)GlcNAc
Summary of the method: as §1

[3] = target: Neu5Ac(a2-3)Gal(b1-4)GlcNAc(b1-3)Gal(b1-4)GlcNAc
Summary of the method: as §1

[4] = target: Neu5Ac(a2-3)Gal(b1-4)GlcNAc(b1-3)Gal(b1-4)GlcNAc(b1-3)Gal(b1-4)GlcNAc
Summary of the method: as §1

[5] = target: Neu5Ac(a2-3)Gal(b1-4)GlcNAc(b1-3)Gal(b1-4)[Fuc(a1-3)]GlcNAc
Summary of the method: as §1

[6] = target: Neu5Ac(a2-3)Gal(b1-4)GlcNAc(b1-3)GalNAc
Summary of the method: as §1

[7] = target: Neu5Ac(a2-3)Gal(b1-4)GlcNAc(b1-6)[Gal(b1-3)]GalNAc
Summary of the method: as §1

[8] = target: Neu5Ac(a2-3)Gal(b1-4)GlcNAc(b1-6)[Neu5Ac(a2-3)Gal(b1-3)]GalNAc
Summary of the method: as §1

[9] = target: Neu5Ac(a2-3)Gal(b1-4)GlcNAc6S
Summary of the method: as §1

[10] = target: Neu5Ac(a2-3)Gal(b1-4)[Fuc(a1-3)]GlcNAc
Summary of the method: as §1

[11] = target: Neu5Ac(a2-3)Gal(b1-4)[Fuc(a1-3)]GlcNAc(b1-3)Gal
Summary of the method: as §1

[12] = target: Neu5Ac(a2-3)Gal(b1-4)[Fuc(a1-3)]GlcNAc(b1-3)Gal(b1-4)GlcNAc
Summary of the method: as §1

[13] = target: Neu5Ac(a2-3)Gal(b1-4)[Fuc(a1-3)]GlcNAc(b1-3)Gal(b1-4)[Fuc(a1-3)]GlcNAc(b1-3)Gal(b1-4)[Fuc(a1-3)]GlcNAc
Summary of the method: as §1

[14] = target: Neu5Ac(a2-3)Gal(b1-4)[Fuc(a1-3)]GlcNAc(b1-3)GalNAc
Summary of the method: as §1

[15] = target: Neu5Ac(a2-3)Gal(b1-4)[Fuc(a1-3)]GlcNAc(b1-6)[Gal(b1-3)]GalNAc
Summary of the method: as §1

[16] = target: Neu5Ac(a2-3)Gal(b1-4)[Fuc(a1-3)]GlcNAc6S
Summary of the method: as §1

[17] = target: Neu5Ac(a2-3)Gal6S(b1-4)GlcNAc
Summary of the method: as §1

[18] = target: Neu5Ac(a2-3)Gal6S(b1-4)[Fuc(a1-3)]GlcNAc
Summary of the method: as §1

[19] = target: Neu5Ac(a2-3)GalNAc
Summary of the method: as §1

[20] = target: Neu5Ac(a2-3)GalNAc(b1-4)GlcNAc
Summary of the method: as §1

[21] = target: Neu5Ac(a2-3)[GalNAc(b1-4)]Gal(b1-4)Glc
Summary of the method: as §1

[22] = target: Neu5Ac(a2-3)[GalNAc(b1-4)]Gal(b1-4)GlcNAc
Summary of the method: as §1

[23] = target: Neu5Ac(a2-3)[GalNAc(b1-4)]Gal(b1-4)GlcNAc(b1-3)GalNAc
Summary of the method: as §1

[24] = target: Neu5Ac(a2-3)[Neu5Ac(a2-6)]GalNAc
Summary of the method: as §1

[25] = target: Neu5Ac(a2-6)Gal
Summary of the method: as §1

[26] = target: Neu5Ac(a2-6)Gal(b1-3)GlcNAc(b1-3)[Gal(b1-4)GlcNAc(b1-6)]Gal(b1-4)Glc
Summary of the method: as §1

[27] = target: Neu5Ac(a2-6)Gal(b1-4)Glc
Summary of the method: as §1

[28] = target: Neu5Ac(a2-6)Gal(b1-4)GlcNAc
Summary of the method: as §1

[29] = target: Neu5Ac(a2-6)Gal(b1-4)GlcNAc(b1-2)Man(a1-3)Man(b1-4)GlcNAc(b1-4)GlcNAc
Summary of the method: as §1

[30] = target: Neu5Ac(a2-6)Gal(b1-4)GlcNAc(b1-2)Man(a1-3)[Gal(b1-4)GlcNAc(b1-2)Man(a1-6)]Man(b1-4)GlcNAc(b1-4)GlcNAc
Summary of the method: as §1

[31] = target: Neu5Ac(a2-6)Gal(b1-4)GlcNAc(b1-2)Man(a1-3)[GlcNAc(b1-2)Man(a1-6)]Man(b1-4)GlcNAc(b1-4)GlcNAc
Summary of the method: as §1

[32] = target: Neu5Ac(a2-6)Gal(b1-4)GlcNAc(b1-2)Man(a1-3)[GlcNAc(b1-2)Man(b1-4)GlcNAc(b1-2)Man(a1-6)]Man(b1-4)GlcNAc(b1-4)GlcNAc
Summary of the method: as §1

[33] = target: Neu5Ac(a2-6)Gal(b1-4)GlcNAc(b1-2)Man(a1-3)[Man(a1-6)]Man(b1-4)GlcNAc(b1-4)GlcNAc
Summary of the method: as §1

[34] = target: Neu5Ac(a2-6)Gal(b1-4)GlcNAc(b1-2)Man(a1-3)[Neu5Ac(a2-6)Gal(b1-4)GlcNAc(b1-2)Man(a1-6)]Man(b1-4)GlcNAc(b1-4)GlcNAc
Summary of the method: as §1

[35] = target: Neu5Ac(a2-6)Gal(b1-4)GlcNAc(b1-2)Man(a1-6)Man(b1-4)GlcNAc(b1-4)GlcNAc
Summary of the method: as §1

B1: Eosinophil-derived neurotoxin (EDN) (Homo sapiens), P10153 (protein)
chain: MVPKLFTSQICLLLLLGLLAVEGSLHVKPPQFTWAQWFETQHINMTSQQCTNAMQVINNYQRRCKNQNTFLLTTFANVVNVCGNPNMTCPSNKTRKNCHHSGSQVPLIHCNLTTPSPQNISNCRYAQTPANMFYIVACDNRDQRRDPPQYPVVPVHLDRII
glycan array binding signal (z-score) [1]: -0.711 | glycan array binding signal (z-score) [2]: 0.087 | glycan array binding signal (z-score) [3]: -0.327 | glycan array binding signal (z-score) [4]: 0.122 | glycan array binding signal (z-score) [5]: -0.259 | glycan array binding signal (z-score) [6]: 0.703 | glycan array binding signal (z-score) [7]: 1.16 | glycan array binding signal (z-score) [8]: -0.238 | glycan array binding signal (z-score) [9]: -0.089 | glycan array binding signal (z-score) [10]: -0.232 | glycan array binding signal (z-score) [11]: -0.389 | glycan array binding signal (z-score) [12]: 0.331 | glycan array binding signal (z-score) [13]: 0.454 | glycan array binding signal (z-score) [14]: 0.955 | glycan array binding signal (z-score) [15]: 0.427 | glycan array binding signal (z-score) [16]: 0.105 | glycan array binding signal (z-score) [17]: -1.26 | glycan array binding signal (z-score) [18]: -0.455 | glycan array binding signal (z-score) [19]: 0.007 | glycan array binding signal (z-score) [20]: 0.074 | glycan array binding signal (z-score) [21]: 0.28 | glycan array binding signal (z-score) [22]: 0.011 | glycan array binding signal (z-score) [23]: -1.23 | glycan array binding signal (z-score) [24]: 0.025 | glycan array binding signal (z-score) [25]: 0.598 | glycan array binding signal (z-score) [26]: 0.328 | glycan array binding signal (z-score) [27]: -0.474 | glycan array binding signal (z-score) [28]: 0.105 | glycan array binding signal (z-score) [29]: -0.179 | glycan array binding signal (z-score) [30]: 1.86 | glycan array binding signal (z-score) [31]: -0.101 | glycan array binding signal (z-score) [32]: -0.093 | glycan array binding signal (z-score) [33]: 0.194 | glycan array binding signal (z-score) [34]: -0.253 | glycan array binding signal (z-score) [35]: 0.578
